{"sequences": {"note": "Amino acid sequences for entries named in this document (tags omitted). A change or cut given only in a name is not applied to a line headed by its entry.", "UniProt Q8WVB6, whole entry": "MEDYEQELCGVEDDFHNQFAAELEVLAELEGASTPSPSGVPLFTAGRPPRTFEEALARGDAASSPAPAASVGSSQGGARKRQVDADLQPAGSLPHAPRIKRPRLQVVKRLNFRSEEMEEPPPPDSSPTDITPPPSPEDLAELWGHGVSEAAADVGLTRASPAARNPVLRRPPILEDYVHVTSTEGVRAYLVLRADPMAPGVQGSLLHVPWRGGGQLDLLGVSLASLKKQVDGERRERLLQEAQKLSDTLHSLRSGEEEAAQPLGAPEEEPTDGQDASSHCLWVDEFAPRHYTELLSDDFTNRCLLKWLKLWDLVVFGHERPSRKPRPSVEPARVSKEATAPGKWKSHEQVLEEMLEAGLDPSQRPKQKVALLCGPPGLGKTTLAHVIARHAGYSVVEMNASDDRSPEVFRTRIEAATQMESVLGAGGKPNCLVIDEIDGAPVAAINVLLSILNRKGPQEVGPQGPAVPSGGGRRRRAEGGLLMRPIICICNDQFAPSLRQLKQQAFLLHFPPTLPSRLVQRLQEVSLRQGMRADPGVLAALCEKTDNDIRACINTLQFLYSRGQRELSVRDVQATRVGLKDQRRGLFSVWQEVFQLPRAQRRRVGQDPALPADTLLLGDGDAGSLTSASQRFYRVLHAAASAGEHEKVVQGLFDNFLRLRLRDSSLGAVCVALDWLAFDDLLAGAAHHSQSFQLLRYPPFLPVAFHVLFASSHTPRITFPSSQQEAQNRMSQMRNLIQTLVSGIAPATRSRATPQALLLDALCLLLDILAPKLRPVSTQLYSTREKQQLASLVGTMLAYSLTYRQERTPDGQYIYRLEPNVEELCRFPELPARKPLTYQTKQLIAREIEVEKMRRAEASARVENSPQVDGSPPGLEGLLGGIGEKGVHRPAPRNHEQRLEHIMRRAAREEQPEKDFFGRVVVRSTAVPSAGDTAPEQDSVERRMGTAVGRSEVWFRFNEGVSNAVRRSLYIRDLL", "UniProt Q92609": "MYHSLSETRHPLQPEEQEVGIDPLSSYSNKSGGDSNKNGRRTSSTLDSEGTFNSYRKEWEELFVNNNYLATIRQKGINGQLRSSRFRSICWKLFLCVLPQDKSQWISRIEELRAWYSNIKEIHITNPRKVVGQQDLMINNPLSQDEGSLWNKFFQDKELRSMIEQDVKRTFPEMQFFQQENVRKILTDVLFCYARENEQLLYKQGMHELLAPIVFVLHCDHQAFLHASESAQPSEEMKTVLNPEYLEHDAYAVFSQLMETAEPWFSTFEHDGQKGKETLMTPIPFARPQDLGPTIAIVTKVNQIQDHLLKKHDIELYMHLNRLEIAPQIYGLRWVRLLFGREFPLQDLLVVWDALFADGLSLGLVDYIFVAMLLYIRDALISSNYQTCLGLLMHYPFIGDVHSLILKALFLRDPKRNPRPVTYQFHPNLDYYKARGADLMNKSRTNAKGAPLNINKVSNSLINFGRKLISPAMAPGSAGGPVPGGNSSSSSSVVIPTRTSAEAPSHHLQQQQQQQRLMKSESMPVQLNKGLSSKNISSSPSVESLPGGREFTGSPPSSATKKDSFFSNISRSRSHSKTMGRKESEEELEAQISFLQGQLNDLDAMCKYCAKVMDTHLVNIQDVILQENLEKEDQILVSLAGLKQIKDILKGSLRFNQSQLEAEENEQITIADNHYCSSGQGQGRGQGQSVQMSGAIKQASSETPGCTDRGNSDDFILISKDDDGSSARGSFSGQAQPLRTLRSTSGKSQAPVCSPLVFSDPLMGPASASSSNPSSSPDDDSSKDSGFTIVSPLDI", "UniProt Q8TBZ6": "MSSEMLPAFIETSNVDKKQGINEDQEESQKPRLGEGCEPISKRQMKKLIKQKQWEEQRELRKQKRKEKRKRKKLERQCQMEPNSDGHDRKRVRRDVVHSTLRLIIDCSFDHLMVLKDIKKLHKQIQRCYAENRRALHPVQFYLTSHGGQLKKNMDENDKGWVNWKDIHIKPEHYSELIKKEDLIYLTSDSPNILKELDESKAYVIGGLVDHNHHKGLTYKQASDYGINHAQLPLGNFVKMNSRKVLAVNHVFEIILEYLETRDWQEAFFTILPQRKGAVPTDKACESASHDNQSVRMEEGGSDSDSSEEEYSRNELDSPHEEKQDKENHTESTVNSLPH", "UniProt Q92619": "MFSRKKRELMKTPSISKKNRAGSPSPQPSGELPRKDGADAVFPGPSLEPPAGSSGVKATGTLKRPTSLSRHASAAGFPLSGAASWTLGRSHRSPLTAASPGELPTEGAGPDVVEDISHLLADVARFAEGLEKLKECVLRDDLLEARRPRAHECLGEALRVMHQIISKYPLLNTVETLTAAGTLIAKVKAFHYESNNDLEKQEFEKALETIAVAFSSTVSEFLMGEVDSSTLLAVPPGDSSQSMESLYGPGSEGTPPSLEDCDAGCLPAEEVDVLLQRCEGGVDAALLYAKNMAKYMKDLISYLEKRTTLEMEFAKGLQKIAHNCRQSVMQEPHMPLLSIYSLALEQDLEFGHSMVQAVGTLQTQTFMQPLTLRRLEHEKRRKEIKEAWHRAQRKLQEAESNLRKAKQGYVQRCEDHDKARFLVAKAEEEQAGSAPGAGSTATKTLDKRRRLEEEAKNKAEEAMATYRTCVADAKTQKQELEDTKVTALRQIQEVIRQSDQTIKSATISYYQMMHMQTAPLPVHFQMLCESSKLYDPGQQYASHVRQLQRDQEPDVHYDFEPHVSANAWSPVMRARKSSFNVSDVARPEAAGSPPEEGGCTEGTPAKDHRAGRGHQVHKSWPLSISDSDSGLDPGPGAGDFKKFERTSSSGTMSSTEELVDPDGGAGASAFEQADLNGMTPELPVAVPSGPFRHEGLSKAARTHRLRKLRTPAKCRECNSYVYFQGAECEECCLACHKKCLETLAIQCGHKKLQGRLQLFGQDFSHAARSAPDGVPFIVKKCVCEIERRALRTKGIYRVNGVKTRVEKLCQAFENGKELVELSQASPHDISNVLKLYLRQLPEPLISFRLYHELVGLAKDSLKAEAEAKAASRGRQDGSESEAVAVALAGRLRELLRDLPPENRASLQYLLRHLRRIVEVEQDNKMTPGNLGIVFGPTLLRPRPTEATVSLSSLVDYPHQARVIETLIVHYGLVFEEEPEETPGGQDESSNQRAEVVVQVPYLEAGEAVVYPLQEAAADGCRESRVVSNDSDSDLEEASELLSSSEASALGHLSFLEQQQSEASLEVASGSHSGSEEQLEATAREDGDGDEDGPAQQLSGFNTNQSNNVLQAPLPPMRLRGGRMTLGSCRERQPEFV", "UniProt Q8WXK3": "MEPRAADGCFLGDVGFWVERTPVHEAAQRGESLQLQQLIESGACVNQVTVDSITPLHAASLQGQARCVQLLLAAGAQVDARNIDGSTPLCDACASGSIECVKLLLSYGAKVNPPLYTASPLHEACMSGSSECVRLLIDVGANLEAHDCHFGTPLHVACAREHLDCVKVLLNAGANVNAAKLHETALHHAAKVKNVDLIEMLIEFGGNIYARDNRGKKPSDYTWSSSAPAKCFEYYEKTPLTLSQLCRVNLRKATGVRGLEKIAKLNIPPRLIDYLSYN", "UniProt Q8TEU7": "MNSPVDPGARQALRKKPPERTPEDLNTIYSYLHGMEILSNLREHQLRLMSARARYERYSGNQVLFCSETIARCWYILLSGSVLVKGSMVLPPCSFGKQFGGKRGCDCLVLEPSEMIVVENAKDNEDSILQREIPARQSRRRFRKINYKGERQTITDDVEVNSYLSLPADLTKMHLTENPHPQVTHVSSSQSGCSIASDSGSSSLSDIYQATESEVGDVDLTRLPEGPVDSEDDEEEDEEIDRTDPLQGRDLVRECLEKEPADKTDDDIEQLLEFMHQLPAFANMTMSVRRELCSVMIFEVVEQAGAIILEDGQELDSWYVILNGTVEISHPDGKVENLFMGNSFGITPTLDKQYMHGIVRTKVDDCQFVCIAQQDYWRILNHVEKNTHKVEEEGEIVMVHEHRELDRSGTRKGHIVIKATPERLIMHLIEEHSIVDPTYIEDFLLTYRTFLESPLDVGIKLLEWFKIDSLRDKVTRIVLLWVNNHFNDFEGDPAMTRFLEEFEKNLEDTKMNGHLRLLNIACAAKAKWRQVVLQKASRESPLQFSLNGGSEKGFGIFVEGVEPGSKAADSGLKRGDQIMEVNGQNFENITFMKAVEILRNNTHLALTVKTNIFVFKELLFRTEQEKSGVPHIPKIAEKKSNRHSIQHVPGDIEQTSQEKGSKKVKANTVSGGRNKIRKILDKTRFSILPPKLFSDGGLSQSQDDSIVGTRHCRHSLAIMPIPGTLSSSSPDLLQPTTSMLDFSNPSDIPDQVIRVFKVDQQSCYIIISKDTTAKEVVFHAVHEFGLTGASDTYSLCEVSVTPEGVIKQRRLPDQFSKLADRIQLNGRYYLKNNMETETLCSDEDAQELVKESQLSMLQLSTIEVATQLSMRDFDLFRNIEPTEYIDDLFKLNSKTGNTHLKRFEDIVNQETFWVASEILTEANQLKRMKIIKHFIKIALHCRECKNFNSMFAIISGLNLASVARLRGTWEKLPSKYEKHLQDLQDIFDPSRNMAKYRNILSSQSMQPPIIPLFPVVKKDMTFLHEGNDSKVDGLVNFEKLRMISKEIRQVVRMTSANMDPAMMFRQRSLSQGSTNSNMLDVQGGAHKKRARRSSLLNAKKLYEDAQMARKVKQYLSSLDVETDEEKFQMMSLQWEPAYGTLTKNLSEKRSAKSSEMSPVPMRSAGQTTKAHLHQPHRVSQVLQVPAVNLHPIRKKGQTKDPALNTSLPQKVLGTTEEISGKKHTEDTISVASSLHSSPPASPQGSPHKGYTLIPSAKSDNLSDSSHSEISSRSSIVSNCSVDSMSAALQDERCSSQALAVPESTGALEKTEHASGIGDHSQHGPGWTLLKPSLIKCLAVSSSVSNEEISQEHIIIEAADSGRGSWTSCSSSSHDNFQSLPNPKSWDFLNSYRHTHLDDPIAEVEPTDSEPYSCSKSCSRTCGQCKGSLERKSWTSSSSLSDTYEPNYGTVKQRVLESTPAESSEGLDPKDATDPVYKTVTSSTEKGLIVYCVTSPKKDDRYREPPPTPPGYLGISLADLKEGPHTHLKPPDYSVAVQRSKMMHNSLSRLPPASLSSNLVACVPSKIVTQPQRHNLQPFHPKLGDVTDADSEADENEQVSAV", "UniProt Q92625": "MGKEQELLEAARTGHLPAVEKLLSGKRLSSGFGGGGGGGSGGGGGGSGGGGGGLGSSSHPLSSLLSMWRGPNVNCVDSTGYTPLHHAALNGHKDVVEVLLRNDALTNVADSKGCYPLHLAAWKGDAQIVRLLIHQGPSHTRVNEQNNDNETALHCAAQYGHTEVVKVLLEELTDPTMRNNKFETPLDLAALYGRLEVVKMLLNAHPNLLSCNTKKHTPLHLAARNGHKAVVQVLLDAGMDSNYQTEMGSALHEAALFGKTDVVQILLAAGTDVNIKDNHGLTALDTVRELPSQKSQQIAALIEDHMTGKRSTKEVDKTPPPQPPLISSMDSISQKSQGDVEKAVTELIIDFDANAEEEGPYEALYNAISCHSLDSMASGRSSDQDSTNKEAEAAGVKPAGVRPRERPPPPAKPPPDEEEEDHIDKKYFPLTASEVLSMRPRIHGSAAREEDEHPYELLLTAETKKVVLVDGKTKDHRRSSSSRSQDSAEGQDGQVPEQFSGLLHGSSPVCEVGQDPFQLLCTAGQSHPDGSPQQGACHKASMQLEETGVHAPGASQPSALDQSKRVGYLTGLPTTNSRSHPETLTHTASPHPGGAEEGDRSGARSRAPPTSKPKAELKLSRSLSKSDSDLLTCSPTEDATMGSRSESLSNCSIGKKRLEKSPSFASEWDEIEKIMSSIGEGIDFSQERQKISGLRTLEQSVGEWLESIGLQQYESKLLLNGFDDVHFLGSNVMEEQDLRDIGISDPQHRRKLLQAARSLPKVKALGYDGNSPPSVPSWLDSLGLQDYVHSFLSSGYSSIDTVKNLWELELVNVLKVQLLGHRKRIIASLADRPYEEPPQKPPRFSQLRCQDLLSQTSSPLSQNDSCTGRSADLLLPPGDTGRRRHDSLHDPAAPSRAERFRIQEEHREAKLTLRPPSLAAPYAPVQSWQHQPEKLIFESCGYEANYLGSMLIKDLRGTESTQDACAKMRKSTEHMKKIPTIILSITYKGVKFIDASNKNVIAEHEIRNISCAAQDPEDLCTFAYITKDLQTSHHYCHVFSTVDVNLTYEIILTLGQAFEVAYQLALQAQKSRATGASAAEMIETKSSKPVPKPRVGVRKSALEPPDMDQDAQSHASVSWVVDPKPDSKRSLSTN", "UniProt Q8WV92, whole entry": "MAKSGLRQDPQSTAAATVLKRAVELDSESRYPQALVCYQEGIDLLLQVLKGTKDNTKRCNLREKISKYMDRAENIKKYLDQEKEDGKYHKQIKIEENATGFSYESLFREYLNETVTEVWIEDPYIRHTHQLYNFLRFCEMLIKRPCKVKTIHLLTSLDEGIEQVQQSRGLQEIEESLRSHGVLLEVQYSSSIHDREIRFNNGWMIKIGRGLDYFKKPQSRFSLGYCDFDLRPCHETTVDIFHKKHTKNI"}, "source": "the supplement of paper PMC12819154", "about": "“High-throughput peptide-centric local stability assay extends protein–ligand identification to membrane proteins, tissues and bacteria” (Nature Structural & Molecular Biology, 2025)", "note": "This is one part of the list. Small differences around the control level are noise.", "data": [{"compound": "CN[C@@H]1C[C@H]2O[C@@](C)([C@@H]1OC)n1c3ccccc3c3c4c(c5c6ccccc6n2c5c31)C(=O)NC4 [staurosporine]", "test": "log2 fold change of tryptic peptide abundance, ligand vs vehicle (limited proteolysis) (log2 ratio); higher = more trypsin-susceptible (destabilized)", "conditions": "ligand concentration: 20 uM; sample: K562 cleared lysate; digestion: 4 min, 22 C (HT-PELSA RT4min, Orbitrap Astral)", "values": [{"target": "CHTF18 (peptide sequence: FNEGVSNAVR, peptide start residue: 957) (UniProt Q8WVB6)", "log2 fold change": 0.167}, {"target": "TTN (peptide sequence: PEVINITR, peptide start residue: 21207) (UniProt Q8WZ42)", "log2 fold change": -0.313}, {"target": "TBC1D5 (peptide sequence: PVTYQFHPNLDYYK, peptide start residue: 420) (UniProt Q92609)", "log2 fold change": -0.233}, {"target": "UniProt Q8TBZ6 (peptide sequence: ACESASHDNQSVR, peptide start residue: 284)", "log2 fold change": -0.344}, {"target": "UniProt Q92619 (peptide sequence: HASAAGFPLSGAASWTLGR, peptide start residue: 71)", "log2 fold change": -0.499}, {"target": "UniProt Q8WXK3 (peptide sequence: TPVHEAAQR, peptide start residue: 21)", "log2 fold change": 0.345}, {"target": "RAPGEF6 (peptide sequence: AHLHQPHR, peptide start residue: 1170) (UniProt Q8TEU7)", "log2 fold change": 0.203}, {"target": "ANKS1A (peptide sequence: IMSSIGEGIDFSQER, peptide start residue: 674) (UniProt Q92625)", "log2 fold change": -0.728}, {"target": "DDX54 (peptide sequence: SRPAPSPESIKR, peptide start residue: 522) (UniProt Q8TDD1)", "log2 fold change": 0.354}, {"target": "DIS3L (peptide sequence: YIQGILNVNK, peptide start residue: 243) (UniProt Q8TF46)", "log2 fold change": -0.883}, {"target": "SLC39A7 (peptide sequence: DGPVRPQNAEEEKR, peptide start residue: 298) (UniProt Q92504)", "log2 fold change": 0.513}, {"target": "MITD1 (peptide sequence: AVELDSESR, peptide start residue: 22) (UniProt Q8WV92)", "log2 fold change": -0.337}, {"target": "ASAP3 (peptide sequence: YGCLTISHSTINRPPVK, peptide start residue: 329) (UniProt Q8TDY4)", "log2 fold change": -0.753}, {"target": "TSC1 (peptide sequence: AAALEEHNAAMK, peptide start residue: 726) (UniProt Q92574)", "log2 fold change": 0.88}, {"target": "RUBCN (peptide sequence: LLAQIDASMFAR, peptide start residue: 182) (UniProt Q92622)", "log2 fold change": -0.527}, {"target": "MADD (peptide sequence: IFTGSLLVEEK, peptide start residue: 226) (UniProt Q8WXG6)", "log2 fold change": -0.256}, {"target": "CKAP2 (peptide sequence: PASLSNDKLMEK, peptide start residue: 326) (UniProt Q8WWK9)", "log2 fold change": 0.643}, {"target": "UniProt Q8WXA9 (peptide sequence: EHNKEPDSSVSK, peptide start residue: 462)", "log2 fold change": -0.239}, {"target": "PNPT1 (peptide sequence: IKHPTALGLEVGQEIQVK, peptide start residue: 717) (UniProt Q8TCS8)", "log2 fold change": -0.252}, {"target": "UniProt Q8TD17 (peptide sequence: TVTELGNQLEGK, peptide start residue: 84)", "log2 fold change": 0.734}, {"target": "SNX19 (peptide sequence: KSLLESFLK, peptide start residue: 630) (UniProt Q92543)", "log2 fold change": 0.0535}, {"target": "GEMIN6 (peptide sequence: EKLMHLFTSGDCK, peptide start residue: 80) (UniProt Q8WXD5)", "log2 fold change": 0.65}, {"target": "RABGGTA (peptide sequence: TSEEQAEAK, peptide start residue: 9) (UniProt Q92696)", "log2 fold change": -0.0613}, {"target": "UniProt Q8WV93 (peptide sequence: NIPQFTLANR, peptide start residue: 375)", "log2 fold change": -0.233}, {"target": "TFG (peptide sequence: QSTQVMAASMSAFDPLK, peptide start residue: 156) (UniProt Q92734)", "log2 fold change": 0.296}, {"target": "GOLGA1 (peptide sequence: GPLQAEALSVNESHVTSR, peptide start residue: 574) (UniProt Q92805)", "log2 fold change": -0.779}, {"target": "DCAKD (peptide sequence: INAQLPLTDK, peptide start residue: 159) (UniProt Q8WVC6)", "log2 fold change": 0.162}, {"target": "EDARADD (peptide sequence: TVGQLMELCR, peptide start residue: 175) (UniProt Q8WWZ3)", "log2 fold change": 0.185}]}]}
